Experimental data: the supplement of paper PMC10331698
± gives the standard deviation of the averaged measurements. Small differences around the control level are noise.

Experiments:
Experiment in all cases: level (log10 ratio to DMSO vehicle control); higher = higher biomarker level / cell amount than vehicle control
[1] = compound: C=CC(=O)OCC(F)(F)C(F)(F)C(F)(F)COC(=O)C=C [1H,1H,5H,5H-Perfluoro-1,5-pentanediol diacrylate]; conditions: 2200 nM; in DMSO
Protocol: (§1)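 BioMAP Diversity Plus panel of 12 human primary cell co-culture systems (3C, 4H, LPS, SAg, BT, BF4T, BE3C, CASM3C, HDF3CGF, KF3CT, MyoF, Mphg). Compounds were added 1 h before stimulation and left for 24 h (MyoF 48 h; BT 72 h for soluble read-outs or 6 d for IgG). Biomarkers were read by ELISA, cytotoxicity by SRB, PBMC viability and proliferation by Alamar Blue. Each well value was divided by the mean of 8 DMSO control wells on the same plate and log10 transformed; duplicate blinded samples were tested at 4 concentrations.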

[2] = compound: C=CC(=O)OCCC(F)(F)C(F)(F)C(F)(F)C(F)(F)C(F)(F)C(F)(F)C(F)(F)C(F)(F)F [8:2 Fluorotelomer acrylate]; conditions: 2200 nM; in DMSO
Protocol: as §1

[3] = compound: C=CC(=O)OCCC(F)(F)C(F)(F)C(F)(F)C(F)(F)F [2-(Perfluorobutyl)ethyl acrylate]; conditions: 2200 nM; in DMSO
Protocol: as §1

[4] = compound: FC(F)(F)C(F)(C(F)(F)F)C(F)(F)C(F)(F)CC1CO1 [3-(Perfluoro-3-methylbutyl)-1,2-propenoxide]; conditions: in DMSO
Protocol: as §1

Perfluoro-1-iodohexane = compound: FC(F)(F)C(F)(F)C(F)(F)C(F)(F)C(F)(F)C(F)(F)I [Perfluoro-1-iodohexane]; conditions: in DMSO
Protocol: as §1

[5] = compound: FC(F)(I)C(F)(F)C(F)(F)C(F)(F)C(F)(F)C(F)(F)I [1,6-Diiodoperfluorohexane]; conditions: 2200 nM; in DMSO
Protocol: as §1

[6] = compound: O=C(Cl)C(F)(F)C(F)(F)C(F)(F)C(=O)Cl [Hexafluoroglutaryl chloride]; conditions: 2200 nM; in DMSO
Protocol: as §1

[7] = compound: O=C(O)C(F)(F)C(F)(F)C(F)(F)C(F)(F)C(F)(F)C(F)(F)C(F)(F)C(F)(F)C(F)(F)C(F)(F)C(F)(F)C(F)(F)C(F)(F)F [Perfluorotetradecanoic acid]; conditions: in DMSO
Protocol: as §1

[8] = compound: O=C(O)C=C(C(F)(F)F)C(F)(F)F [3,3-Bis(trifluoromethyl)-2-propenoic acid]; conditions: in DMSO
Protocol: as §1

[9] = compound: O=S(=O)(O)C(F)(F)C(F)(F)C(F)(F)C(F)(F)C(F)(F)C(F)(F)F [Perfluorohexanesulfonic acid]; conditions: 2200 nM; in DMSO
Protocol: as §1

[10] = compound: O=S(=O)(O)CCC(F)(F)C(F)(F)C(F)(F)C(F)(F)F [4:2 Fluorotelomer sulfonic acid]; conditions: 2200 nM; in DMSO
Protocol: as §1

Hexafluoroamylene glycol = compound: OCC(F)(F)C(F)(F)C(F)(F)CO [Hexafluoroamylene glycol]; conditions: 2200 nM; in DMSO
Protocol: as §1

[11] = compound: OCCCC(F)(F)C(F)(F)C(F)(F)C(F)(F)C(F)(F)C(F)(F)C(F)(F)F [7:3 Fluorotelomer alcohol]; conditions: 2200 nM; in DMSO
Protocol: as §1

Row | Test System | level (log10) [1] | level (log10) [2] | level (log10) [3] | level (log10) ([4]; 740 nM) | level (log10) ([4]; 2200 nM) | level (log10) (Perfluoro-1-iodohexane; 2200 nM) | level (log10) (Perfluoro-1-iodohexane; 6700 nM) | level (log10) (Perfluoro-1-iodohexane; 20000 nM) | level (log10) (Perfluoro-1-iodohexane; 60000 nM) | level (log10) [5] | level (log10) [6] | level (log10) ([7]; 740 nM) | level (log10) ([7]; 2200 nM) | level (log10) ([8]; 2200 nM) | level (log10) ([8]; 6700 nM) | level (log10) ([8]; 20000 nM) | level (log10) ([8]; 60000 nM) | level (log10) [9] | level (log10) [10] | level (log10) (Hexafluoroamylene glycol) | level (log10) [11]
1 | CASM3C:PAI-I | 0.0045 ± 0.0078 | -0.0045 ± 0.0078 | 0 ± 0.023 | -0.006 ± 0.017 | -0.004 ± 0.0057 | -0.0005 ± 0.00071 | -0.003 ± 0.0071 | -0.007 ± 0.0014 | -0.003 ± 0.0028 | -0.002 ± 0.0014 | -0.0085 ± 0.0021 | 0.007 ± 0.0028 | 0.012 ± 0.0085 | -0.006 ± 0.017 | -0.0115 ± 0.012 | -0.019 ± 0.0057 | -0.0145 ± 0.012 | 0.004 ± 0.0099 | -0.0085 ± 0.0021 | -0.004 ± 0.014 | -0.0065 ± 0.00071
2 | HDF3CGF:CD54/ICAM-1 | -0.283 ± 0.0064 | 0.0415 ± 0.046 | -0.0125 ± 0.0021 | -0.0195 ± 0.0064 | -0.027 ± 0.011 | 0.0015 ± 0.005 | -0.014 ± 0.0099 | -0.0225 ± 0.013 | -0.0255 ± 0.0078 | -0.0285 ± 0.047 | -0.002 ± 0.011 | -0.001 ± 0.037 | -0.0195 ± 0.0064 | 0.032 ± 0.045 | 0.033 ± 0.035 | 0.032 ± 0.027 | 0.0555 ± 0.021 | -0.0075 ± 0.005 | -0.008 ± 0.0099 | 0.006 ± 0.03 | -0.003 ± 0.023
3 | HDF3CGF:SRB | -0.095 ± 0.05 | -0.0015 ± 0.025 | 0.0005 ± 0.021 | -0.03 ± 0.011 | -0.024 ± 0.024 | 0.0395 ± 0.032 | 0.021 ± 0.035 | 0.0085 ± 0.018 | -0.0085 ± 0.067 | 0.027 ± 0.068 | -0.0105 ± 0.03 | -0.018 ± 0.031 | -0.004 ± 0.0071 | -0.004 ± 0.045 | -0.014 ± 0.028 | 0.0125 ± 0.021 | -0.022 ± 0.02 | 0.0195 ± 0.00071 | -0.0235 ± 0.037 | -0.038 ± 0.027 | 0.003 ± 0.017
4 | HDF3CGF:CXCL10/IP-10 | -0.497 ± 0.0078 | 0.005 ± 0.016 | 0.0125 ± 0.011 | -0.01 ± 0.0042 | 0.012 ± 0.0028 | -0.0015 ± 0.018 | -0.033 ± 0.014 | -0.0435 ± 0.0035 | -0.114 ± 0.076 | -0.021 ± 0.037 | -0.011 ± 0.035 | 0.0265 ± 0.067 | 0.022 ± 0.027 | -0.0145 ± 0.03 | -0.0175 ± 0.005 | -0.0445 ± 0.005 | -0.04 ± 0.025 | -0.007 ± 0.0057 | -0.0055 ± 0.0078 | -0.006 ± 0.027 | -0.006 ± 0.011
5 | HDF3CGF:TIMP-2 | -0.142 ± 0.086 | -0.0545 ± 0.094 | -0.0225 ± 0.036 | -0.0495 ± 0.028 | -0.0295 ± 0.081 | -0.011 ± 0.035 | 0.017 ± 0.038 | 0.0295 ± 0.018 | 0.031 ± 0.045 | -0.0065 ± 0.0078 | -0.0555 ± 0.0092 | 0.0275 ± 0.043 | 0.05 ± 0.016 | -0.023 ± 0.018 | -0.0175 ± 0.013 | -0.0595 ± 0.028 | -0.082 ± 0.03 | -0.0105 ± 0.026 | 0.0125 ± 0.06 | 0.0255 ± 0.076 | -0.0335 ± 0.019
6 | BF4T:MMP-9 | -0.009 ± 0.0042 | -0.0095 ± 0.033 | 0.0015 ± 0.061 | -0.008 ± 0.0085 | 0.003 ± 0.011 | -0.0285 ± 0.052 | -0.0005 ± 0.015 | -0.011 ± 0.0042 | -0.021 ± 0.034 | -0.015 ± 0.035 | -0.009 ± 0.023 | 0.004 ± 0.059 | -0.017 ± 0.051 | -0.0015 ± 0.032 | -0.0155 ± 0.0021 | -0.0185 ± 0.018 | -0.004 ± 0.021 | 0.016 ± 0.076 | 0.0115 ± 0.066 | 0.007 ± 0.038 | 0.0015 ± 0.013
7 | KF3CT:PAI-I | 0.0265 ± 0.011 | 0.002 ± 0.0014 | -0.013 ± 0.024 | 0.015 ± 0.0071 | 0.001 ± 0.024 | 0.008 ± 0.011 | 0.001 ± 0.0014 | -0.0005 ± 0.005 | 0.0055 ± 0.005 | 0.0025 ± 0.035 | -0.0075 ± 0.023 | 0.0045 ± 0.028 | -0.006 ± 0.021 | 0.018 | 0.004 ± 0.013 | 0.002 ± 0.013 | -0.0055 ± 0.018 | 0.013 ± 0.023 | 0.002 ± 0.011 | -0.002 ± 0.0085 | -0.013 ± 0.033
8 | SAg:CD69 | -0.0275 ± 0.098 | -0.015 ± 0.03 | -0.018 ± 0.0042 | -0.0015 ± 0.043 | -0.0005 ± 0.037 | -0.0265 ± 0.013 | -0.0155 ± 0.033 | -0.017 ± 0.024 | 0.006 ± 0.0014 | -0.0155 ± 0.016 | -0.0205 ± 0.025 | 0.0125 ± 0.018 | -0.018 ± 0.0071 | -0.007 ± 0.0057 | -0.0145 ± 0.013 | -0.0615 ± 0.0092 | -0.171 ± 0.0014 | -0.0145 ± 0.005 | -0.0165 ± 0.025 | -0.0155 ± 0.022 | -0.026 ± 0.018
9 | LPS:sPGE2 | -0.02 ± 0.0042 | -0.0485 ± 0.056 | -0.0715 ± 0.018 | -0.0125 ± 0.026 | -0.009 ± 0.069 | -0.02 ± 0.0071 | 0.0235 ± 0.0092 | 0.0015 ± 0.00071 | -0.038 ± 0.018 | 0.004 ± 0.0042 | 0.006 ± 0.033 | -0.0045 ± 0.049 | 0.0585 ± 0.11 | -0.092 ± 0.018 | -0.0855 ± 0.016 | -0.09 ± 0.021 | -0.106 ± 0.016 | -0.0115 ± 0.012 | 0.0025 ± 0.022 | -0.013 ± 0.02 | 0.019 ± 0.0028
10 | MyoF:CXCL8/IL-8 | 0.0075 ± 0.0021 | 0.0115 ± 0.049 | 0.008 ± 0.0042 | 0.008 ± 0.044 | -0.007 ± 0.011 | 0.015 ± 0.024 | 0.021 ± 0.041 | 0.023 ± 0.041 | 0.0385 ± 0.028 | 0.068 ± 0.016 | -0.0115 ± 0.0092 | 0.0125 ± 0.025 | 0.0235 ± 0.0064 | 0.0855 ± 0.0078 | 0.0915 ± 0.00071 | 0.107 ± 0.015 | 0.154 ± 0.016 | 0.0015 ± 0.023 | 0.004 ± 0.042 | -0.0055 ± 0.005 | 0.0125 ± 0.046
11 | LPS:CD142/Tissue Factor | -0.004 | 0.0495 ± 0.0064 | 0.009 ± 0.065 | -0.0225 ± 0.086 | -0.0545 ± 0.091 | -0.016 ± 0.0099 | -0.018 ± 0.038 | 0.0045 ± 0.0021 | 0.0045 ± 0.011 | -0.0475 ± 0.0021 | 0.086 ± 0.03 | 0.0645 ± 0.036 | -0.0005 ± 0.071 | 0.0005 ± 0.043 | 0.0165 ± 0.064 | -0.023 ± 0.12 | -0.036 ± 0.12 | -0.023 ± 0.0028 | -0.0465 ± 0.043 | 0.0265 ± 0.069 | -0.027 ± 0.021
12 | HDF3CGF:CXCL8/IL-8 | -0.009 ± 0.0042 | -0.005 ± 0.02 | 0.0145 ± 0.00071 | 0.0095 ± 0.0064 | 0.0045 ± 0.011 | 0.003 ± 0.0099 | -0.0055 ± 0.0021 | -0.002 ± 0.0057 | -0.024 ± 0.037 | 0.007 ± 0.0071 | 0.0035 ± 0.0035 | 0.003 ± 0.016 | -0.018 ± 0.017 | 0.0055 ± 0.012 | 0.008 ± 0.0014 | -0.001 | 0.022 ± 0.011 | -0.003 ± 0.0085 | -0.0035 ± 0.0064 | 0.0015 ± 0.0078 | 0.004 ± 0.0057
